This is one part of the list.

Here are results for 39 targets from the supplement of paper PMC12067093, “Discovery and optimisation of a covalent ligand for TRIM25 and its application to targeted protein ubiquitination” (Chemical Science, 2025).

Compound in the experiment: CC1Cc2ccccc2N1C(=O)C1CCCN(C1)C(=O)CCl (mixture of isomers) [TRIM25 ligand 11 (diastereomer mixture)]
Nature of the experiment: probe-labelled cysteine peptide fold change vs DMSO (competition) (log2 fold change); higher = less target engagement (more negative = stronger competition). To be noted: THP-1, incubation time: 4 h.
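Also: competitive chemoproteomic profiling in live THP-1 cells with an iodoacetamide desthiobiotin (IA-DTB) probe, comparing probe-labelled peptide intensities in compound-treated cells against DMSO-treated controls.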

As to “EEF2K_O00418_213_QVDIMQMCIIELK (UniProt O00418)”, the “probe-labelled cysteine peptide fold change” value (10 µM) is 0.23 and the “probe-labelled cysteine peptide fold change” value (50 µM) turned out to be 0.115.

Take “EDC4_Q6P2E9_299_GHSTCLSEGALSPDGTVLATASHDGYVK (UniProt Q6P2E9)”: the “probe-labelled cysteine peptide fold change” value was 0.0628 (10 µM) and -0.195 (50 µM).

Turning to “EEF1A1_P68104_363+370_GNVAGDSKNDPPMEAAGFTAQVIILNHPGQISAGYAPVLDCHTAHIACK (UniProt P68104)”, the “probe-labelled cysteine peptide fold change” value is -0.278 (10 µM) and -0.376 (50 µM).

As for “EDC3_Q96F86_311_RLEMTGVCASQMALTLLGGPNR (UniProt Q96F86)”, the “probe-labelled cysteine peptide fold change” value (10 µM) is -0.0187 and the “probe-labelled cysteine peptide fold change” value (50 µM) is 0.0828.

In the case of “EFL1_Q7Z2Z2_646_LLNQADPCVQILIQETGEHVLVTAGEVHLQR (UniProt Q7Z2Z2)”, the “probe-labelled cysteine peptide fold change” value was determined as 0.0676 (10 µM) and 0.252 (50 µM).

As to “EHMT1_Q9H9B1_842_DAEGSTCLHLAAK (UniProt Q9H9B1)”, the “probe-labelled cysteine peptide fold change” value (10 µM) worked out at 0.0107 and the “probe-labelled cysteine peptide fold change” value (50 µM) was -0.12.

Turning to “EGFL7_Q9UHF1_267_IDSLSEQISFLEEQLGSCSCK (UniProt Q9UHF1)”, the “probe-labelled cysteine peptide fold change” value runs as follows: (10 µM) -0.0508; (50 µM) -0.221.

Turning to “EED_O75530_126_VTLYECHSQGEIR (UniProt O75530)”, the “probe-labelled cysteine peptide fold change” value runs as follows: (10 µM) 0.222; (50 µM) 0.32.

With “EFTUD2_Q15029_144_TCFVDCLIEQTHPEIR (UniProt Q15029)”, the “probe-labelled cysteine peptide fold change” value was -0.151 (10 µM) and -0.0849 (50 µM).

Regarding “EEF1AKMT2_Q5JPI9_150_LKVEDFLNLSTQLSGFHICIDK (UniProt Q5JPI9)”, the “probe-labelled cysteine peptide fold change” value was determined as 0.0092 (10 µM) and 0.079 (50 µM).

Turning to “EHMT1_Q9H9B1_978_EGETPLQCASLNSQVWSALQMSK (UniProt Q9H9B1)”, the “probe-labelled cysteine peptide fold change” value was -0.0447 (10 µM) and 0.0915 (50 µM).

For the target “EFTUD2_Q15029_639_VEESGEHVILGTGELYLDCVMHDLR (UniProt Q15029)”, the “probe-labelled cysteine peptide fold change” value reads like this: (10 µM) 0.0921; (50 µM) -0.058.

On to “EFTUD2_Q15029_144+148_TCFVDCLIEQTHPEIRK (UniProt Q15029)”, for which the “probe-labelled cysteine peptide fold change” value is, setting by setting: (10 µM) -0.16; (50 µM) -0.136.

Consider “EHMT1_Q9H9B1_802_SPLHAAAEAGHVDICHMLVQAGANIDTCSEDQR (UniProt Q9H9B1)”, for which the “probe-labelled cysteine peptide fold change” value (10 µM) was -0.163 and the “probe-labelled cysteine peptide fold change” value (50 µM) was -0.0515.

As to “ECPAS_Q5VYK3_1257_TIAALLPCLLDK (UniProt Q5VYK3)”, the “probe-labelled cysteine peptide fold change” value by setting is: (10 µM) -0.0673; (50 µM) -0.101.

“EEF2_P13639_369_YRCELLYEGPPDDEAAMGIK (UniProt P13639)”: the “probe-labelled cysteine peptide fold change” value was -0.272 (10 µM) and -0.21 (50 µM).

“ECM1_Q16610_151_EGTPAPFGDQSHPEPESWNAAQHCQQDR (UniProt Q16610)”: the “probe-labelled cysteine peptide fold change” value is 0.321 (10 µM) and 0.299 (50 µM).

With “EHMT2_Q96KQ7_1170_YFTCQCGSEK (UniProt Q96KQ7)”, the “probe-labelled cysteine peptide fold change” value reads like this: (10 µM) 0.112; (50 µM) 0.136.

As for “EIF2B2_P49770_194+198_FHVIVAECAPFCQGHEMAVNLSK (UniProt P49770)”, the “probe-labelled cysteine peptide fold change” value by setting is: (10 µM) 0.0395; (50 µM) 0.398.

In the case of “EGLN1_Q9GZT9_127_AKPPADPAAAASPCR (UniProt Q9GZT9)”, the “probe-labelled cysteine peptide fold change” value is, setting by setting: (10 µM) -0.0729; (50 µM) -0.147.

“EHHADH_Q08426_566_YCPIPDVLCELGR (UniProt Q08426)”: the “probe-labelled cysteine peptide fold change” value (10 µM) was -0.00247 and the “probe-labelled cysteine peptide fold change” value (50 µM) is -0.151.

Take “EIF2S3_P41091_105_SCGSSTPDEFPTDIPGTK (UniProt P41091)”: the “probe-labelled cysteine peptide fold change” value by setting is: (10 µM) 0.0576; (50 µM) 0.0359.

With “EIF2B4_Q9UI10_69_GAEPETGSAVSAAQCQVGPTR (UniProt Q9UI10)”, the “probe-labelled cysteine peptide fold change” value is -0.000696 (10 µM) and -0.226 (50 µM).

As for “ECT2_Q9H8V3_686_VETISLGEHPCDR (UniProt Q9H8V3)”, the “probe-labelled cysteine peptide fold change” value is, setting by setting: (10 µM) 0.138; (50 µM) -0.0735.

With “EHHADH_Q08426_559+566_YCPIPDVLCELGR (UniProt Q08426)”, the “probe-labelled cysteine peptide fold change” value is -0.196 (10 µM) and -0.249 (50 µM).

In the case of “EEF1G_P26641_266_AAAPAPEEEMDECEQALAAEPK (UniProt P26641)”, the “probe-labelled cysteine peptide fold change” value is 0.128 (10 µM) and -0.0815 (50 µM).

As for “EEA1_Q15075_346_DLDCQQLQSR (UniProt Q15075)”, the “probe-labelled cysteine peptide fold change” value is, setting by setting: (10 µM) -0.018; (50 µM) 0.107.

Regarding “EIF2A_Q9BY44_80_AVCLEFSPK (UniProt Q9BY44)”, the “probe-labelled cysteine peptide fold change” value was -0.033 (10 µM) and 0.00415 (50 µM).

In the case of “ECT2_Q9H8V3_661_QIFDVVYEVDGCPANLLSSHR (UniProt Q9H8V3)”, the “probe-labelled cysteine peptide fold change” value is, setting by setting: (10 µM) 0.179; (50 µM) -0.00801.

Regarding “EHMT2_Q96KQ7_497_HHCCPGCGYFCTAGTFLECHPDFR (UniProt Q96KQ7)”, the “probe-labelled cysteine peptide fold change” value (10 µM) was -0.0136 and the “probe-labelled cysteine peptide fold change” value (50 µM) came out at 0.0286.

Turning to “EFTUD2_Q15029_144_TCFVDCLIEQTHPEIRK (UniProt Q15029)”, the “probe-labelled cysteine peptide fold change” value (10 µM) is -0.25 and the “probe-labelled cysteine peptide fold change” value (50 µM) is -0.112.

Regarding “EEF1A2_Q05639_370_SDPPQEAAQFTSQVIILNHPGQISAGYSPVIDCHTAHIACK (UniProt Q05639)”, the “probe-labelled cysteine peptide fold change” value by setting is: (10 µM) -0.133; (50 µM) -0.13.

Consider “ECPAS_Q5VYK3_1638_IVAISCAADILK (UniProt Q5VYK3)”, for which the “probe-labelled cysteine peptide fold change” value (10 µM) is 0.0975 and the “probe-labelled cysteine peptide fold change” value (50 µM) was 0.182.

On to “EHHADH_Q08426_199_RLCNKPIQSLPNMDSIFSEALLK (UniProt Q08426)”, for which the “probe-labelled cysteine peptide fold change” value reads like this: (10 µM) -0.246; (50 µM) -0.026.

As to “EGLN1_Q9GZT9_42_SSFYCCK (UniProt Q9GZT9)”, the “probe-labelled cysteine peptide fold change” value is, setting by setting: (10 µM) -0.111; (50 µM) -0.074.

On to “EDRF1_Q3B7T1_1074_DAPCELLR (UniProt Q3B7T1)”, for which the “probe-labelled cysteine peptide fold change” value came to 0.126 (10 µM) and 0.31 (50 µM).

On to “ECHS1_P30084_111_EMQNLSFQDCYSSK (UniProt P30084)”, for which the “probe-labelled cysteine peptide fold change” value is -0.266 (10 µM) and -0.158 (50 µM).

As to “EEF2_P13639_651_KIWCFGPDGTGPNILTDITK (UniProt P13639)”, the “probe-labelled cysteine peptide fold change” value is, setting by setting: (10 µM) -0.345; (50 µM) -0.313.

In the case of “EDC3_Q96F86_311_LEMTGVCASQMALTLLGGPNR (UniProt Q96F86)”, the “probe-labelled cysteine peptide fold change” value by setting is: (10 µM) -0.36; (50 µM) -0.14.
